# PubChem BioAssay AID1259308 | NCATS | 2017
# Purpose: 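Genes whose loss raises luciferase production in HEK293 cells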 (primary screen)
# Cell system: human HEK293 embryonic kidney cells stably expressing firefly luciferase (HEK-CMV-Luc2-Hygro)
# Reagent: single siRNA against human genes, 0.8 pmol siRNA per well
# Timing: 72 h
# Measurement: 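Reporter luminescence and viable-cell signal on separate replicate plates, given as percent of non-targeting control and median/MAD z-scores, plus per-cell luciferase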
# Direction: total luciferase, z-score and total luciferase, % of control: higher = more reporter protein produced; luciferase per cell, z-score: higher = more reporter output per viable cell
# Call rule: 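Active when the median/MAD z-score for overall luciferase is greater than 3; a gene was taken forward for validation with new siRNAs if at least two of its three siRNAs passed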
# Meaning of the calls: active = raised luciferase; inactive = no rise
# This is one part, drawn at random, of about 59,000 reagents tested. About 1,510 of them (2.6%) were called active. 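Calls use total luciferase alone and ignore viability, so some active siRNAs may act by altering cell number.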 The numbers tell different reagents against one gene apart. Further read-outs or replicates are left out here.
gene knocked down,reagent no.,"total luciferase, z-score","total luciferase, % of control","luciferase per cell, z-score",Outcome
SH2D7,1,1.45,111,2.9,inactive
SH2D7,2,-0.919,63.6,-0.862,inactive
SH2D7,3,0.0347,82.6,1.86,inactive
UBQLN1,1,0.755,96.9,0.878,inactive
UBQLN1,2,0.303,87.9,-0.0128,inactive
UBQLN1,3,-0.0987,79.9,-0.345,inactive
NAA80,1,-0.985,62.3,-0.967,inactive
NAA80,2,1.81,118,1.24,inactive
NAA80,3,0.19,85.7,-0.203,inactive
RPS19,1,-2.39,34.3,-0.485,inactive
RPS19,2,-2.17,38.8,-0.12,inactive
RPS19,3,-1.56,50.8,-1.07,inactive
SEMA3B,1,0.0512,82.9,-0.0927,inactive
SEMA3B,2,-0.495,72,-0.563,inactive
SEMA3B,3,0.728,96.4,0.707,inactive
GIPC1,1,-0.247,77,-0.915,inactive
GIPC1,2,0.23,86.5,0.849,inactive
GIPC1,3,-1.74,47.2,-0.042,inactive
NUDT16,1,0.851,98.8,0.342,inactive
NUDT16,2,0.0022,81.9,-0.308,inactive
NUDT16,3,0.461,91.1,-0.511,inactive
CYP11B1,1,2,122,1.76,inactive
CYP11B1,2,0.436,90.6,0.00334,inactive
CYP11B1,3,-1.32,55.7,-1.88,inactive
NIFK,1,-1.43,53.4,-1.33,inactive
NIFK,2,-1.98,42.5,-1.83,inactive
NIFK,3,-1.05,61,1.24,inactive
OR51B5,1,2.08,123,2.23,inactive
OR51B5,2,0.168,85.2,0.906,inactive
OR51B5,3,0.24,86.7,-0.133,inactive
MAML1,1,4.6,173,2.67,active
MAML1,2,2.33,128,2.4,inactive
MAML1,3,-0.182,78.3,-0.394,inactive
IFI27L2,1,-0.603,69.9,1.27,inactive
IFI27L2,2,-1.02,61.5,-0.22,inactive
IFI27L2,3,-0.0995,79.9,0.522,inactive
ANKEF1,1,-1.05,61.1,-1.07,inactive
ANKEF1,2,-0.156,78.8,-0.793,inactive
ANKEF1,3,0.82,98.2,0.264,inactive
ID4,1,0.87,99.2,0.895,inactive
ID4,2,0.791,97.6,0.199,inactive
ID4,3,1.26,107,0.682,inactive
TTPAL,1,-0.836,65.3,-0.552,inactive
TTPAL,2,-1,62,-1.22,inactive
TTPAL,3,3.13,144,1.49,active
PKD1L1-AS1,1,0.53,92.4,0.799,inactive
PKD1L1-AS1,2,1.15,105,0.682,inactive
PKD1L1-AS1,3,0.331,88.5,0.492,inactive
ABCB8,1,4.4,169,4.53,active
ABCB8,2,3.54,152,1.88,active
ABCB8,3,1.7,116,0.988,inactive
UBA1,1,0.0722,83.3,0.0425,inactive
UBA1,2,0.289,87.6,-0.207,inactive
UBA1,3,-0.637,69.2,-0.694,inactive
ZSCAN31,1,5.51,192,3.42,active
ZSCAN31,2,1.15,105,0.746,inactive
ZSCAN31,3,-0.643,69.1,0.279,inactive

5 entries from above, ordered by “total luciferase, % of control”, low to high.
gene knocked down,reagent no.,"total luciferase, z-score","total luciferase, % of control","luciferase per cell, z-score",Outcome
GIPC1,3,-1.74,47.2,-0.042,inactive
NUDT16,2,0.0022,81.9,-0.308,inactive
GIPC1,2,0.23,86.5,0.849,inactive
NUDT16,3,0.461,91.1,-0.511,inactive
NUDT16,1,0.851,98.8,0.342,inactive
